These are yes or no findings as the source states them, for the method shown. In cells and extracts the contact can be indirect. Sequences can lack the tags named with a protein.
Assays:
Assay in all cases: co-IP; HEK293T cells transfected with FLAG-tagged RIG-I or MDA5 constructs and Myc-tagged GLUT4; anti-FLAG magnetic beads on lysate (2% DDM, 25mM HEPES, 150mM NaCl)
FLAG-MDA5 ΔCARD = target: FLAG-MDA5 ΔCARD
FLAG-RIG-I ΔCARD (human) = target: FLAG-RIG-I ΔCARD (human)
[1] = target: FLAG-RIG-I C-terminal domain (CTD) (human)

Measured: binding

B1: GLUT4 (Myc-tagged) expressed in HEK293T cells (protein, UniProt P14672 1-509)
chain: MPSGFQQIGSEDGEPPQQRVTGTLVLAVFSAVLGSLQFGYNIGVINAPQKVIEQSYNETWLGRQGPEGPSSIPPGTLTTLWALSVAIFSVGGMISSFLIGIISQWLGRKRAMLVNNVLAVLGGSLMGLANAAASYEMLILGRFLIGAYSGLTSGLVPMYVGEIAPTHLRGALGTLNQLAIVIGILIAQVLGLESLLGTASLWPLLLGLTVLPALLQLVLLPFCPESPRYLYIIQNLEGPARKSLKRLTGWADVSGVLAELKDEKRKLERERPLSLLQLLGSRTHRQPLIIAVVLQLSQQLSGINAVFYYSTSIFETAGVGQPAYATIGAGVVNTVFTLVSVLLVERAGRRTLHLLGLAGMCGCAILMTVALLLLERVPAMSYVSIVAIFGFVAFFEIGPGPIPWFIVAELFSQGPRPAAMAVAGFSNWTSNFIIGMGFQYVAEAMGPYVFLLFAVLLLGFFIFTFLRVPETRGRTFDQISAAFHRTPSLLEQEVKPSTELEYLGPDEND
no binding: all assays above

Reference: PMC11177981 (2024)
